Assay results: PubChem BioAssay AID192 (DTP/NCI, 2004)
The list is a part of this screen's results and no random one: it gathers tests that were run many times, whatever their T/C, doses with no T/C, and many T/C values between a quarter and a half above the control. Other doses and runs of a compound stand elsewhere. T/C is the treated group as % of the vehicle group. Some doses have a count of surviving animals in place of a T/C: the source files T/C as zero there, which appears to mark a toxic dose or a test without result, not a measured value. Some doses without a T/C left all or most animals alive at the check, yet need not have been tolerated: the source hardly ever lists a survival T/C far under the control, and the zero likely stands for such cases as well. Counts of survivors are from the toxicity check (mostly the fifth day) where no day follows; animals may have died later. Schedule codes are those of the source, read here as Q, the interval in days (D) or hours (H), X, the number of doses. Where survival is the endpoint, this PubChem deposit counts one and a half times the control or more as active, and values a quarter to a half above the control carry no call in these data; other NCI protocols may use other cut-offs. Brackets with × stand for listed records that agree. Some entries hold several experiments; the values are given in rising order.

Tested on: BDF1 mice, B16 melanoma ip, median survival T/C
Assay: NCI In Vivo Anticancer Drug Screen. Data for tumor model B16 Melanoma (intraperitoneal) in B6D2F1 (BDF1) mice
Conditions: T/C endpoint: median survival time, higher T/C = longer survival
Procedure, shortened: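 Vehicle-treated animals serve as the reference (C); treated animals (T) are scored for survival or tumor size after tumor transplantation.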

[1] = dose: 0.25 mg/kg/injection, schedule: Q01DX009 (ip), vehicle: saline

`CC(=O)NC1=C(N2CC2)C(=O)C(NC(C)=O)=C(N2CC2)C1=O` was tested, and the T/C [1] was 128 % of control, the T/C (dose: 0.5 mg/kg/injection, schedule: Q01DX005 (ip), vehicle: saline with Tween-80) was 125 % of control and the T/C (dose: 0.5 mg/kg/injection, schedule: Q01DX009 (ip), vehicle: saline with Tween-80) was 125 % of control. For the same compound, the survivor count (dose: 0.5 mg/kg/injection, schedule: Q01DX009 (ip), vehicle: saline) was 8 of 10, the T/C (dose: 1.0 mg/kg/injection, schedule: Q01DX009 (ip), vehicle: saline with Tween-80) was 129 and 131 % of control and the survivor count (dose: 1.0 mg/kg/injection, schedule: Q01DX009 (ip), vehicle: saline) was 6 of 10. The T/C (dose: 2.0 mg/kg/injection, schedule: Q01DX005 (ip), vehicle: saline with Tween-80) was 140 % of control (2×), the survivor count (dose: 2.0 mg/kg/injection, schedule: Q01DX009 (ip), vehicle: saline with Tween-80) was 10 of 10 and the survivor count (dose: 2.0 mg/kg/injection, schedule: Q01DX009 (ip), vehicle: saline) was 3 of 10. For the same compound, the survivor count (dose: 4.0 mg/kg/injection, schedule: Q01DX005 (ip), vehicle: saline with Tween-80) was 10 of 10.
In the case of `CC(C)c1ccc(NC(=O)Nc2cccc3ccccc23)cc1`, the survivor count (dose: 400.0 mg/kg/injection, schedule: Q01DX009 (ip), vehicle: Klucel (hydroxypropylcellulose) (HPC)) is reported as 6 of 6.
With `CC1=C(/C=C/C(C)=C/C=C/C(C)=C/C=O)C(C)(C)CCC1` the survivor count (dose: 128.0 mg/kg/injection, schedule: Q01DX005 (ip), vehicle: DMSO) was 10 of 10.
In the case of `C=C1CCN(c2ccccc2)C1=O`, the T/C (dose: 32.0 mg/kg/injection, schedule: Q01DX009 (ip), vehicle: saline + alcohol) is reported as 129 % of control.
With `C=C(C)C12CC(COC(=O)c3ccccc3)C34OC5(OC1C3C1OC1(CO)C(O)C1(O)C(OC(=O)c3ccccc3)C(C)C(C(C)CCCCCCC5O)C14)O2` (configuration not stated) the survivor count (dose: 15.0 micrograms/kg/injection, schedule: Q01DX009 (ip), vehicle: saline with Tween-80) was 10 of 10.
In the case of `CNC(=O)CCN1CCN(CC/C=C2\c3ccccc3Sc3ccc(Cl)cc32)CC1`, the T/C [1] is reported as 126 % of control, the survivor count (dose: 8.25 mg/kg/injection, schedule: Q01DX009 (ip), vehicle: saline) is reported as 9 of 10 and the survivor count (dose: 16.5 mg/kg/injection, schedule: Q01DX009 (ip), vehicle: saline) is reported as 0 of 10. The survivor count (dose: 33.0 mg/kg/injection, schedule: Q01DX009 (ip), vehicle: saline) was 0 of 10 and the survivor count (dose: 66.0 mg/kg/injection, schedule: Q01DX009 (ip), vehicle: saline) was 0 of 10.
In the case of `CCCCCCCCCCCCCCCCCC[N+](C)(C)c1nc(Cl)nc(Cl)n1`, the survivor count (dose: 25.0 mg/kg/injection, schedule: Q01DX009 (ip), vehicle: other) is reported as 10 of 10, the survivor count (dose: 50.0 mg/kg/injection, schedule: Q01DX009 (ip), vehicle: other) is reported as 10 of 10 and the survivor count (dose: 100.0 mg/kg/injection, schedule: Q01DX009 (ip), vehicle: other) is reported as 1 of 10. The survivor count (dose: 200.0 mg/kg/injection, schedule: Q01DX009 (ip), vehicle: other) was 0 of 10 and the survivor count (dose: 400.0 mg/kg/injection, schedule: Q01DX009 (ip), vehicle: other) was 0 of 10.
In the case of `CC1(C)N=C(N)N=C(N)N1c1cccc(CCCCc2cccc(S(=O)(=O)F)c2)c1`, the survivor count (dose: 50.0 mg/kg/injection, schedule: Q01DX009 (ip), vehicle: saline with Tween-80) is reported as 4 of 10.
`CCCCCCCCCCCC[N+]1(CCCCCCCCCCCC)CCCC(C)C1` (configuration not stated) was tested, and the survivor count (dose: 0.75 mg/kg/injection, schedule: Q01DX009 (ip), vehicle: Klucel (hydroxypropylcellulose) (HPC)) was 10 of 10, the survivor count (dose: 1.5 mg/kg/injection, schedule: Q01DX009 (ip), vehicle: Klucel (hydroxypropylcellulose) (HPC)) was 5 of 10 and the survivor count (dose: 3.0 mg/kg/injection, schedule: Q01DX009 (ip), vehicle: Klucel (hydroxypropylcellulose) (HPC)) was 0 of 10. For the same compound, the survivor count (dose: 6.0 mg/kg/injection, schedule: Q01DX009 (ip), vehicle: Klucel (hydroxypropylcellulose) (HPC)) was 2 of 10.
With `CC[CH](C)[Hg][c]1cccc2ccccc12` (configuration not stated) the survivor count (dose: 100.0 mg/kg/injection, schedule: Q01DX009 (ip), vehicle: Klucel (hydroxypropylcellulose) (HPC)) was 6 of 10.
For `O=[N+]([O-])/C=C/C(Cl)(Cl)Cl`, the survivor count (dose: 25.0 mg/kg/injection, schedule: Q01DX009 (ip), vehicle: Klucel (hydroxypropylcellulose) (HPC)) was 10 of 10.
`O=c1[nH]c(-c2ccccc2)c(-c2ccccc2)[nH]1` was tested, and the survivor count (dose: 400.0 mg/kg/injection, schedule: Q01DX009 (ip), vehicle: saline with Tween-80) was 6 of 6.
